# Measurements published in PubChem BioAssay AID602441 (National Center for Advancing Translational Sciences (NCATS), 2012).
# Screen size: about 1,300 compounds; fewer than 10 were called active. Another 9% or so got no clear call; they are omitted. Calls follow the shape of the dose curve; as a rule, active = well fitted curve in the direction sought with a large enough effect; inconclusive = small, poorly fitted or top-dose-only effect, or another doubt; inactive = no such curve, though single readings can be large or run the other way. This is one part of the list.
# Assay: qHTS for antagonists of the Thyroid Stimulation Hormone Receptor: Hit Validation in Parental Cell Line; also: 0% is about no effect
# Settings: parental HEK293 cells lacking TSHR, counter-screen; series mostly up to 56.9 µM; activity change, negative = inhibition: at the top concentration
# How it was run: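 Counterscreen in untransfected parental HEK-EM 293 cells. Lysate cAMP displaces cAMP-d2 from cryptate-tagged anti-cAMP antibody, and homogeneous TR-FRET is read at 665 nm with 337 nm excitation after stimulation.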
row,SMILES,"activity change, negative = inhibition"
1,COc1ccccc1CNC(=O)CSc1nc(N)c(C#N)c(-c2cccs2)c1C#N,inactive: 0.573%
2,Cc1cc(NC(=O)c2cccc(S(=O)(=O)N3CCOCC3)c2)c2ccccc2n1,inactive: 1.33%
3,Cc1ccnc(OC(C(=O)O)C(OCCc2ccccc2)(c2ccccc2)c2ccccc2)n1 (configuration not stated),inactive: 2.81%
4,Cc1cc(C)c(C2=NOC3C4CCC(C4)C23)c(C)c1 (configuration not stated),inactive: 2.6%
5,CCN(CCCNC(=O)Cn1ncc2c([nH]c3ccc(C)cc32)c1=O)c1cccc(C)c1,inactive: 6.57%
6,CC1CCCCN1C(=O)CSCC(=O)Nc1nc(-c2cccs2)cs1 (configuration not stated),inactive: -1.89%
7,CC(NC(=O)c1cc(=O)[nH]c2ccccc12)c1ccc(F)cc1F (configuration not stated),inactive: 4.75%
8,Cc1ccc(OCc2nnc(NC(=O)c3cccnc3)s2)cc1,inactive: 3.34%
9,COc1ccc(NC(=O)c2ccc(-c3ccccc3)cc2)cc1NS(=O)(=O)c1ccc(F)cc1,inactive: -5.28%
10,Cc1cccc2c1NC(=O)C2(c1ccc(O)cc1)c1ccc(O)cc1,inactive: 4.58%
11,Cc1cc(C)cc(C(=O)NC(CC(N)=O)c2ccc(NCCN3CCCC3)c([N+](=O)[O-])c2)c1 (configuration not stated),inactive: 2.31%
12,COc1ccccc1N1CCN(C(=O)CCC(=O)N2CCN(c3ccc(F)cc3)CC2)CC1,inactive: -6.6%
13,O=C(Cn1ncc2c([nH]c3ccccc32)c1=O)NCC1CCN(Cc2ccc(F)cc2)CC1,inactive: -2.21%
14,O=C(CCSc1ccc(Cl)c(Cl)c1)NC12CC3CC(CC(C3)C1)C2,inactive: 3.68%
15,Cc1ccc(CNS(=O)(=O)c2ccc(CN3C(=O)c4cccnc4C3=O)s2)o1,inactive: 1.68%
16,COc1cc2cnc(-c3ccccc3)c(-c3ccc(C#N)cc3)c2cc1OC,inactive: -2.35%
17,Cc1cc(C)n2nc(SCC(=O)Nc3ccccc3C)nc2n1,inactive: 2.99%
18,O=S(=O)(Nc1cccnc1)c1ccc(Br)c2ccccc12,inactive: 29.3%
19,Cc1ccc(CSc2nnc(SCC(=O)N/N=C/c3c(C)nn(-c4ccccc4)c3C)s2)cc1,inactive: 1.1%
20,CCSc1ncc(Cl)c(C(=O)Nc2ccccc2OC)n1,inactive: 3.88%
21,COc1ccc(-c2csc3ncnc(N4CCN(S(=O)(=O)c5cccs5)CC4)c23)cc1,inactive: 0.325%
22,Cc1ccc(OCc2cc(C(=O)NCC3COCCO3)no2)cc1C (configuration not stated),inactive: 3.15%
23,O=C(NCCC1=CCCCC1)c1ccc2c(c1)N(Cc1ccccc1)C(=O)CS2,inactive: -1.82%
24,CC1CC(C)CN(C(=O)c2ccc3c(=O)n(Cc4ccc5c(c4)OCO5)c(=S)[nH]c3c2)C1 (configuration not stated),inactive: -0.844%
25,CC(NC(=O)c1ccc([N+](=O)[O-])o1)C1CC2CCC1C2 (configuration not stated),inactive: 2.74%
26,O=C(NCCc1ccccc1)C(=O)NCC1OCCCN1S(=O)(=O)c1cc(F)ccc1F (configuration not stated),inactive: 2.75%

row,SMILES,"activity change, negative = inhibition"
1,O=[N+]([O-])c1c(NCCO)cc(Sc2nc3ccccc3s2)c2nonc12,inactive: -0.833%
2,Clc1ccc(C2Nc3cccc4cccc(c34)N2)cc1,inactive: -6.26%
3,CC(C)C(c1nnnn1Cc1cccs1)N1CCN(c2ccccc2)CC1 (configuration not stated),inactive: 0.0915%
4,COc1ccc(/C=N/n2c(SC)nnc(C(C)(C)C)c2=O)cc1,inactive: -2.65%
5,O=C(Nc1nnc(C(F)(F)F)s1)c1ccc(Br)s1,inactive: 4.59%
6,C=CCC1(CC=C)CCCN1C(=O)c1cc(COc2ccc(C)nc2)on1,inactive: 0.634%
7,S=c1[nH]nc(-c2ccccc2)n1C1C=CCCC1 (configuration not stated),inactive: 3.95%
8,COC(=O)c1sc(NC(=O)C(C)C)c(C(=O)OC)c1C,inactive: 2.35%
9,O=[N+]([O-])c1ccc(NC(=S)NCc2ccc(F)cc2)cc1,inactive: -9.76%
10,Cc1ccc(NC(=S)c2nc3ccccc3s2)cc1,inactive: 2.04%
11,Cc1ccc(NC(=S)NC(=O)c2ccc(F)cc2)cc1S(=O)(=O)Nc1cccc(Cl)c1,inactive: -0.251%
12,O=C(Nc1nnc(S(=O)(=O)N2CCCCC2)s1)c1cccc(Br)c1,inactive: 1.82%
13,Cc1ccc(C(=O)Nc2ccc(Br)c(C(F)(F)F)c2)cc1,inactive: -6.5%
14,Cc1ccc(S(=O)(=O)N2CCCCC2)cc1NC(=O)Cn1ncc(Cl)c(Cl)c1=O,inactive: -4.17%
15,COc1ccc(CNC(=O)Cn2nc(Cc3cccnc3)c3ccccc3c2=O)cc1,inactive: 3.96%
16,O=C(N/N=C/c1cccc(Oc2ccc([N+](=O)[O-])cc2[N+](=O)[O-])c1)c1cncc(Br)c1,inactive: 0.39%
17,CCc1nnc(NC(=O)c2ccc(Cl)c(S(=O)(=O)N3CCc4ccccc43)c2)s1,inactive: -0.247%
18,COc1ccc(/C=N/n2c(C)nnc2C)c(OC)c1OC,inactive: 2.14%
19,COc1ccc(-c2cc3c(=O)n(CC(=O)NCc4cccnc4)nc(C)n3n2)cc1,inactive: 0.739%
20,Cc1nc(N2CCN(S(=O)(=O)c3ccccc3C#N)CC2)c2c(-c3cccs3)csc2n1,inactive: -3.34%
21,Cc1ccc(S(=O)(=O)N2CCCC(C(=O)NC3CCCC3)C2)cc1Cl (configuration not stated),inactive: 5.01%
22,CNC(=S)n1cnc(N)n1,inactive: 5.9%
23,N#Cc1c(Cl)nsc1NC(=O)c1ccccc1,inactive: -1.11%
24,COc1ccc(OCC(=O)NC(=S)Nc2ccc(N3CCOCC3)c(Cl)c2)cc1,inactive: -3.54%
25,CC(=O)N1c2ccc(S(=O)(=O)N3CCC(C(=O)NC4CCCCC4C)CC3)cc2CC1C (configuration not stated),inactive: 1.67%
26,N#CC(C#N)=NNc1ccc([N+](=O)[O-])cc1,inactive: -10.8%

row,SMILES,"activity change, negative = inhibition"
1,O=C(CSc1ccc(F)cc1)N1CCC(c2nc3ccccc3s2)CC1,inactive: 4.62%
2,CSc1cnn(Cc2ccccc2)c(=O)c1SCc1ccccc1,inactive: -0.181%
3,CSc1nnc(C(C)(C)C)c(=O)n1/N=C/c1c(O)ccc2ccccc12,inactive: -0.0672%
4,CCn1c(=S)sc2c(=O)n(CC(=O)Nc3ccccc3OC)c(C)nc21,inactive: -0.358%
5,CS(=O)(=O)N(CCc1ccccc1)CC(=O)Nc1ccc(OCc2ccccc2)cc1,inactive: -2.69%
6,COc1ccc(CNC(=O)C(C)OC(=O)c2cccs2)cc1 (configuration not stated),inactive: 4.94%
7,COc1cccc(O)c1CN1CCC(C(=O)Nc2ccc(Oc3cccnc3)cc2)CC1,inactive: -18%
8,O=S(=O)(c1cccc(Br)c1)N1CCN(CCc2ccccc2)CC1,inactive: 6.2%
9,COc1ccc(CC(=O)Oc2cc(C)ccc2C)cc1,inactive: 2.72%
10,Cc1cc2nc(SCCOC(=O)Nc3ccc(Cl)cc3)nc(C)c2cc1C,inactive: 4.76%
11,COc1ccc(NC(=S)NC(=O)/C=C/c2ccco2)cc1,inactive: -5.05%
12,S=c1sc2c(Cl)ncnc2n1-c1ccccc1,inactive: -6.96%
13,COc1ccc(NC(=O)CCNS(=O)(=O)c2ccc3c(c2)CC(C)N3C(C)=O)cc1 (configuration not stated),inactive: 2.65%
14,COc1ccc(Cc2nc(C(=O)Nc3ccc(Cl)cc3)cs2)cc1,inactive: 0.0134%
15,O=[N+]([O-])c1cccc(S(=O)(=O)Nc2nc3ccccc3nc2Nc2cccc(S(=O)(=O)N3CCCCC3)c2)c1,inactive: 1.72%
16,CCN(CC)C(=O)Cn1c(=O)n(-c2ccccc2)c(=O)c2sccc21,inactive: 0.869%
17,O=C(COc1ccc(Cl)cc1)Nc1nc(-c2cccs2)cs1,inactive: -10%
18,O=[N+]([O-])c1cc(Br)c(O)c(/C=N/Nc2nnnn2-c2cccc3ccccc23)c1,inactive: -0.201%
19,CCOc1cc(/C=C2\SC(=NC)N(C)C2=O)c(Br)cc1OC(C)=O,inactive: 5.71%
20,Fc1cccc(Cl)c1CNCc1cccnc1,inactive: 4.37%
21,Cc1cc(C(C)(C)C)oc1C(=O)N(CC(=O)NC1CCCC1)c1cccc(C(F)(F)F)c1,inactive: -7.39%
22,COc1cc(C(=O)N/N=C/c2cn(Cc3ccccc3)c3ccccc23)ccc1O,inactive: -4.29%
23,O=S(=O)(Nc1cccc(-n2cnnn2)c1)c1ccccc1C(F)(F)F,inactive: 3.18%
24,Cc1cccc2sc(NC(=O)C3CCN(S(=O)(=O)c4cc([N+](=O)[O-])ccc4Cl)CC3)nc12,inactive: -7.42%
25,O=C1OC(CC(=O)N(Cc2nnc(-c3ccc(Cl)cc3)o2)C2CC2)c2ccccc21 (configuration not stated),inactive: -9.64%
26,O=C1NC(=S)SC1=C1CCCCCC1,inactive: -0.469%

# A second format for some results above:
row	SMILES	activity change, negative = inhibition
7	CC(NC(=O)c1cc(=O)[nH]c2ccccc12)c1ccc(F)cc1F (configuration not stated)	inactive: 4.75%
15	Cc1ccc(CNS(=O)(=O)c2ccc(CN3C(=O)c4cccnc4C3=O)s2)o1	inactive: 1.68%
7	S=c1[nH]nc(-c2ccccc2)n1C1C=CCCC1 (configuration not stated)	inactive: 3.95%
3	CSc1nnc(C(C)(C)C)c(=O)n1/N=C/c1c(O)ccc2ccccc12	inactive: -0.0672%
17	O=C(COc1ccc(Cl)cc1)Nc1nc(-c2cccs2)cs1	inactive: -10%

# (further entries)

row,SMILES,"activity change, negative = inhibition"
1,O=C(/C=C/c1cccc(Cl)c1)c1ccc([N+](=O)[O-])o1,inactive: -2.79%
2,O=C(Nc1ccncc1)c1ccc2c(c1)C(=O)N(C1CCCCC1)C2=O,inactive: -5.95%
3,Cn1c2c(c(=O)[nH]c1=O)C(c1ccc(O)cc1)C1=C(N2)c2ccccc2C1=O (configuration not stated),inactive: -11.6%
4,CC1(C)C2CCC1(C)C(OC(=O)CCn1ccnc1)C2 (configuration not stated),inactive: 6.23%
5,CC[C@@H](C(=O)[C@@H](C)[C@@H](O)[C@H](C)CCc1ccc(C)c(O)c1C(=O)O)[C@H]1O[C@](CC)([C@H]2CC[C@](O)(CC)[C@H](C)O2)C[C@@H]1C,inactive: -5.32%
6,COc1cc(/C=C2\SC(=O)N(c3ccc(Cl)cc3)C2=O)cc([N+](=O)[O-])c1O,inactive: -1.95%
7,CC(C)CC(=O)NC(NC(=S)Nc1sc2c(c1C#N)CCCC2)C(Cl)(Cl)Cl (configuration not stated),inactive: -1.19%
8,CCCCn1c(NC(=O)c2ccccc2Cl)c(C#N)c2nc3ccccc3nc21,inactive: -2.9%
9,CC(C)C(NC(=O)Cc1ccccc1)C(=O)N1CCN(c2cccc(Cl)c2)CC1 (configuration not stated),inactive: 3.45%
10,CCOc1ccc(CCNC(=O)c2ccc3c(=O)[nH]c4c(C(=O)NC(C)C)sc(=S)n4c3c2)cc1,inactive: -4.84%
11,CC(C)N(C(=O)Cn1c(-c2cccnc2)ccc(C#N)c1=O)C(C)C,inactive: 1.02%
12,COc1ccc(-c2cc(C3CCN(c4cc(Cl)nc(N)n4)CC3)[nH]n2)cc1,inactive: -6.08%
13,CC(=O)N(C)c1ccc(N=NC2C(=O)N(C(N)=S)N=C2C)cc1 (configuration not stated),inactive: -1.04%
14,CN(CC(=O)Nc1ccccc1C(F)(F)F)Cc1c(O)ccc2ccccc12,inactive: 2.15%
15,CCOCCCNC(=O)C(NC(=O)c1ccc(=O)[nH]c1)c1ccc(Cl)cc1 (configuration not stated),inactive: 6.09%
16,COc1cc(/C=C(\C#N)c2nc3ccccc3s2)cc([N+](=O)[O-])c1O,inactive: -6.23%
17,Cc1ccc(C(=O)Nc2cccc([N+](=O)[O-])c2)cc1S(=O)(=O)Nc1ccc(NC(=O)c2ccccc2)cc1,inactive: 3.31%
18,O=C1NC(=S)S/C1=C\c1ccc(SCc2ccccc2)o1,inactive: -2.03%
19,CCCCS(=O)(=O)/C=C\C=C/S(=O)(=O)CCCC,inactive: -9.59%
20,O=C(Cn1ncc(Cl)c(Cl)c1=O)N1CCN(S(=O)(=O)c2ccc3ccccc3c2)CC1,inactive: 3.05%
21,COc1ccc(S(=O)(=O)NCCc2cn3nc(C)c(C)nc3n2)cc1F,inactive: 4.11%
22,Cc1ccccc1NC(=O)c1cc2ccccn2n1,inactive: 3.59%
23,CC(C)(C)C(=O)NC(NC(=S)Nc1sc2c(c1C#N)CCCC2)C(Cl)(Cl)Cl (configuration not stated),inactive: -2.81%
24,O=C(Nc1ncc(S(=O)(=O)c2ccc([N+](=O)[O-])cc2)s1)c1cccc2ccccc12,inactive: -6.94%
